Source: PubChem BioAssay AID504786 (Drosophila RNAi Screening Center, 2011)
Purpose: 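Knock-downs reducing HIF reporter induction by the iron chelator DFO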 (primary screen). Cells: Drosophila S2 cells with a stable HIF luciferase reporter. Reagent: long dsRNA against Drosophila genes, about 0.2 µg dsRNA per well of a 384-well plate. Time to read-out: three days of knock-down, then 20 h of DFO before reading. Conditions: desferrioxamine (DFO) at 100 µM, an iron chelator that mimics hypoxia, for 20 h. Measured: 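HIF reporter luminescence in cells given 100 µM DFO for 20 h, using the mouse ldh-a hypoxia-response element, scored as per-plate z-scores; higher means greater loss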. Reading the numbers: z-score: higher = stronger loss of HIF reporter signal.
The deposit covers about 21,000 reagents; shown is a random part of those with a known target gene and a result. 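Primary screen; positive scores mean lost reporter signal, so the sign may be inverted from the usual convention.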

| gene | amplicon | z-score, replicate 1 | z-score, replicate 2 |
| --- | --- | --- | --- |
| PH4alphaEFB | DRSC14473 | -0.3 | -0.8 |
| PH4alphaEFB | DRSC14950 | -0.6 | -0.4 |
| CG16972 | DRSC02550 | 0 | 0.1 |
| Adsl | DRSC15500 | -0.2 | -0.5 |
| CG1671 | DRSC06617 | -0.2 | 0.2 |
| CG14969 | DRSC08428 | -0.2 | 0 |
| CG30479 | DRSC06735 | -0.2 | -0.2 |
| CG4839 | DRSC02783 | -0.1 | -0.5 |
| CG4839 | DRSC02784 | -0.3 | -0.5 |
| CG11425 | DRSC11657 | -0.1 | 0 |
| nsr | DRSC04427 | 0 | -0.2 |
| CG2533 | DRSC19855 | -0.1 | -0.3 |
| CG2772 | DRSC00530 | -0.2 | -0.2 |
| trem | DRSC15575 | 1 | 0.2 |
| CG6052 | DRSC10574 | -0.1 | -0.1 |
| CG32733 (retired record) | DRSC17481 | 0.6 | 0.4 |
| CG42541 | DRSC17973 | -0.3 | 0 |
| CG42541 | DRSC18119 | 1.9 | 4.6 |
| CG42541 | DRSC18120 | -0.2 | 0.2 |
| Hgsnat | DRSC18405 | -0.4 | 0.1 |
| CG18628 | DRSC10328 | -0.1 | -0.1 |
| roq | DRSC10227 | -0.2 | 0 |
| Takl2 | DRSC15650 | -0.3 | -0.3 |
| CG10864 | DRSC14273 | -0.3 | -0.3 |
| Obp57e | DRSC05891 | 0.3 | -0.3 |
| CG15646 | DRSC19682 | -0.4 | -0.3 |
| Pvf2 | DRSC00968 | 2.6 | 5.2 |
| Pvf2 | DRSC02283 | 2 | 1.7 |
| Tim23 | DRSC21240 | -0.4 | -0.3 |
| CG14717 | DRSC14940 | -0.3 | -0.5 |
| CG33771 | DRSC11718 | 0.2 | 0.2 |
| Acp29AB | DRSC01857 | 0.7 | 1.7 |
| grk | DRSC03540 | -0.2 | 0.2 |
| Sdhaf3 | DRSC15020 | -0.3 | -0.3 |
